# Primary screen of a compound library

The chains behind the UniProt entries cited, without tags or fusion partners.
UniProt E9BF75, entry or part of it: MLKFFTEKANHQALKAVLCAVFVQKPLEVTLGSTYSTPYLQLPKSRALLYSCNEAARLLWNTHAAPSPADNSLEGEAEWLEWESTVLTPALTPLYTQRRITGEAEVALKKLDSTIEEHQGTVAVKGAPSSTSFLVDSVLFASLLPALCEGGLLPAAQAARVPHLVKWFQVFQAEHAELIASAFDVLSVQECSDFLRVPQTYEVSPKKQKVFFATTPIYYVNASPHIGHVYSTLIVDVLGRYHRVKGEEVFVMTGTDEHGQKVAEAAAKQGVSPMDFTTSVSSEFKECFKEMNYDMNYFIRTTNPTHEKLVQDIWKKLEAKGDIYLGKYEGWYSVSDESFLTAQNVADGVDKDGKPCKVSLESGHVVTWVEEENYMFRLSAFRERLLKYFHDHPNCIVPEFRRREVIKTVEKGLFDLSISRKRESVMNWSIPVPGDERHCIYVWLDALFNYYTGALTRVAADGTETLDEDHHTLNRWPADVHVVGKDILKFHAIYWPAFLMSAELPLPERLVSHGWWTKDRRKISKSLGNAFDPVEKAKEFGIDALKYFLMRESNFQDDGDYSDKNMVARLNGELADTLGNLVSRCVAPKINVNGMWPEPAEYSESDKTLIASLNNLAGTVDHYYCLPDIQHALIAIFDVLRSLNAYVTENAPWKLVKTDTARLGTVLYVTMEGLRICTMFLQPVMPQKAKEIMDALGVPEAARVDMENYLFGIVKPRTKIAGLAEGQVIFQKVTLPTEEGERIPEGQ

Source: ChEMBL document CHEMBL3988442, “University of Dundee, Small-Polar-MMV Screening Library” (2021).

Results are percentages, as filed. The controls that fix the scale are not given in the record; negative values are as filed. This is an unselected part of the compounds tested.

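Primary screen of methionyl-tRNA synthetase; the read-out is not stated. Target: Methionyl-tRNA synthetase (putative), Leishmania donovani (UniProt E9BF75). The test concentration is not given. The values are filed as inhibition. Of about 68,000 compounds tested this way, about 24 (0.035%) reached 50% or more in at least one test.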

Compound	Inhibition
NC(=O)NC(=O)CCN1CCCC1c1nc(C2CCCCC2)co1 (stereo not shown)	3.359%
OC(COCc1ccccc1Cl)CN1CC(n2cccn2)C1 (stereo not shown)	15.31%
CC(C)N1CCC(N2CCC(C(=O)N(C)C)CC2)CC1	2.747%
COCc1noc(-c2ccc(N(C)Cc3cc(C)no3)nc2)n1	14.13%
c1cc2c(c(-c3cc(N4CCOCC4)ncn3)c1)CCNC2	13.02%
Cc1cc(-c2cc(F)ccc2C(=O)O)nc(C2CCCN(C)C2)n1 (stereo not shown)	9.04%
CC(C)c1cc(C(=O)N2CCCN(CCCc3ccccc3)CC2)[nH]n1	17.6%
c1ccc(-n2ccnc2)c(CNCC2CNc3ccnn3C2)c1 (stereo not shown)	12.55%
CN(C)C(=O)[C@H]1C[C@H]2OCC[C@H]2N(Cc2ccc3c(c2)OCO3)C1	21.27%
O=C(COc1ccccc1)N1C[C@@H](O)[C@H](N2CCCC2)C1	5.137%
CNC(=O)CN1CCC(NC(=O)N(C)Cc2cc(C)on2)CC1	10.42%
CCOc1ccc(CN2CCNC(C(=O)NC3CC3)C2)cc1CO (stereo not shown)	6.03%
CCCc1nc(CNc2cccc(C(=O)N3CCCC(O)C3)c2)no1 (stereo not shown)	13.71%
c1csc(-c2noc(CNC3CCc4ncnn4C3)n2)c1 (stereo not shown)	9.841%
CCN1CCNC(=O)C12CCN(S(=O)(=O)c1ccc(OC)cc1)CC2	8.889%
Fc1cnc(N2CCC3(CC2)CC(OCc2cccnc2)CO3)nc1 (stereo not shown)	9.343%
Cc1ccc(-c2cn3c(n2)CO[C@@H](CNCc2nccs2)C3)cc1	10.51%
CCN(CC)C(=O)c1ccn(COc2cc(C)cc(C)c2)n1	8.714%
c1cnc(N2CCCn3nnc(COCC4CC4)c3C2)nc1	17.39%
COCc1ncn2c1CN(C(=O)c1cccc3cccnc13)CC2	7.107%
CNC(=O)CN1CC[C@H]2CN(C(=O)c3cccn3C)C[C@H]2C1	6.599%
CCn1ncc(CN2C[C@@H]3CCCN3C[C@H]2CCSC)c1C	7.767%
Cc1cnn(CC2CCCN2C(=O)c2ccc3[nH]c(=O)[nH]c3c2)c1 (stereo not shown)	13.11%
CCc1ccccc1OCCN1C[C@@H](NS(C)(=O)=O)[C@H](C(C)C)C1	12.05%
CN(Cc1cccnc1)[C@@H]1CN(C(=O)CC2CC2)[C@@H]2CCCO[C@H]12	7.397%
COC(=O)CNC(=O)c1cn(-c2ccccn2)c(=O)c2ccccc12	18.33%
CN1N=C(C(=O)N2CCN(c3ncccc3Cl)CC2)CCC1=O	10.42%
COc1c(CNCc2ccnc(N(C)C)c2)c(C(C)C)nn1C	17.49%
CCn1cc(CN2C[C@H]3CC[C@@H]2CN(C(=O)c2cnccn2)C3)cn1	13.64%
O=C(CCNC(=O)c1sccc1-c1ccccc1)NC1CCS(=O)(=O)C1 (stereo not shown)	7.865%
O=C(Cc1cccs1)N1C[C@@H]2COC[C@]2(COCc2cccnc2)C1	9.22%
CN(C)S(=O)(=O)N1CCN(C(=O)c2cc(-c3ccc(Br)s3)n[nH]2)CC1	15.01%
Cn1cnnc1CNC(=O)C1CCCN(Cc2cccc(F)c2)C1 (stereo not shown)	12.64%
CN(C)C(CNC(=O)NCCc1cccc(O)c1)c1ccco1 (stereo not shown)	7.063%
COc1ccc(-n2nc(C(C)C)nc2Cn2cncn2)cc1	11.76%
Cc1cc(C)cc(C(=O)Nc2cn[nH]c2)c1	14.21%
CCN1CCC12CCN(C(=O)c1cc(C)on1)C2 (stereo not shown)	11.11%
C[C@@H](O)[C@H](NC(=O)c1csc2nc(-c3ccccc3F)cn12)C(N)=O	8.303%
CCOCCC(=O)Nc1cccc(Cl)c1COC	0.8475%
O=C1[C@H]2CN(Cc3ccncc3)C[C@H]2CN1c1ccsc1	6.667%
CC(C)c1nc(C2CCCN2C(=O)c2nccnc2N)no1 (stereo not shown)	11.75%
CC(C)CCNC(=O)CCc1ccnc2ccccc12	12.1%
O=C(C1CCSCC1)N1CC[C@H]2OCC[C@@]2(COCC2CC2)C1	15.94%
O=C(c1cccnc1)N1CCN(c2ccc(-n3cccc3)nn2)CC1	11.18%
Cc1oc(C(=O)Nc2ccccc2F)cc1S(N)(=O)=O	-6.017%
Fc1cccc(OC2CCN(Cc3ncc[nH]3)CC2)c1	4.516%
O=C(NCC1CCOC1)Nc1ccc(OCC(F)(F)F)nc1 (stereo not shown)	11.66%
O=C(c1cc(C2CCCC2)no1)N1CC(O)C1	15.33%
CCCn1c(NCCc2ccccc2)nc2c(C)nn(C)c2c1=O	24.37%
CC(CO)CNC(=O)c1cc2cccc(F)c2o1 (stereo not shown)	10.99%
O=C(CCC1CCN(C(=O)c2cnco2)CC1)NCc1cccc(Cl)c1	10.42%
Cc1ccc(F)c(S(=O)(=O)NCc2cccc(CS(C)(=O)=O)c2)c1	17.96%
CCN(Cc1cc(Cl)ccc1OC)Cc1ncnn1CC	7.521%

Repeated from the top, 7 entries:

Compound	Inhibition
NC(=O)NC(=O)CCN1CCCC1c1nc(C2CCCCC2)co1 (stereo not shown)	3.359%
OC(COCc1ccccc1Cl)CN1CC(n2cccn2)C1 (stereo not shown)	15.31%
CC(C)N1CCC(N2CCC(C(=O)N(C)C)CC2)CC1	2.747%
COCc1noc(-c2ccc(N(C)Cc3cc(C)no3)nc2)n1	14.13%
c1cc2c(c(-c3cc(N4CCOCC4)ncn3)c1)CCNC2	13.02%
Cc1cc(-c2cc(F)ccc2C(=O)O)nc(C2CCCN(C)C2)n1 (stereo not shown)	9.04%
CC(C)c1cc(C(=O)N2CCCN(CCCc3ccccc3)CC2)[nH]n1	17.6%